What was measured:
Assay type in all cases: cell-based, Plasmodium falciparum
PfCRT-Q352R (parent Dd2) = test: Cross-resistance EC50 assay, PfCRT-Q352R; conditions: SYBR green 72 hour assay, synchronized parasites, 384-well format
From the text: (§1) To evaluate potential overlapping activity against known antimalarial drug targets, we performed dose-response studies with each compound against our assembled set of drug-resistant lines and their corresponding parents, in an asexual blood stage proliferation assay (Table 1). Comparisons were made to the drug-sensitive strain 3D7 when a parent was unavailable (TM90C2A, W2 and Dd2). As laboratories conducted EC50 assays with different strains and protocols, all comparisons were made between assays from the same laboratory and under the same assay conditions. Compounds displaying >5-fold EC50 shifts relative to the parent or sensitive strain were flagged as having potentially non-novel targets. Average fold shifts per strain ranged from 0.82 to 2.34, with a median of 1.23 indicating there was not common resistance to any one resistant clone. No resistance patterns were observed when classifying the compounds based on chemical structure, but this was not surprising given the diversity of compounds chosen. On the other hand, given that these confirmed compounds were derived from larger unconfirmed hit lists to which some filtration criteria may have been applied (for example, elimination of obvious dihydrofolate reductase inhibitors[32]), some[10][11][12][13] pre-existing bias may exist in the set. […]
(§2) Alternatively, a SYBR Green-based proliferation approach was used for the 72-h assay, as previously described. Briefly, a culture of either synchronized or asynchronous parasitized RBCs (0.3% parasitemia and 4% haematocrit) in screening medium (identical to supplemented medium above except no serum was added) was exposed to serial drug dilutions. Plates were incubated at 37 °C and gassed with 93% N2, 4% CO2 and 3% O2 for 72 h. Following incubation, 10 × SYBR Green I (Invitrogen; supplied in 10,000 × concentration) in lysis buffer ([…], 5 mM EDTA, 0.16% Saponin wt per vol and 1.6% Triton X vol per vol) was added to the wells and the plates were incubated overnight at room temperature before plate reading. EC50 assays were repeated three times, taking the average EC50 value from each assay set, and removing any outliers using a single iteration of Grubbs' test, eliminating values with z-scores above the critical z-value (α=0.05). The raw EC50 values for synchronized parasites assayed in a 384-well format are listed in Supplementary Data 4. The raw EC50 values for asynchronous parasites assayed in a 96 or 1536-well format are listed in Supplementary Data 5.
(§3) EC50 values for each strain were compared with those of the corresponding parent strain to determine fold-shift changes and identify resistance. To minimize the cause variance between assays, all comparisons were conducted between strains assayed under identical conditions. A one-way ANOVA followed by a Dunnet's post-test was conducted in GraphPad Prism to identify significant changes between the parent and resistant strain.

[1] = test system: GNF156R (PfCARL L830V, S1076I and M81I, parent Dd2); test: Cross-resistance EC50 assay, GNF156R; conditions: SYBR green 72 hour assay, asynchronized parasites, 96-well or 1536-well format
From the text: as §1, §2, §3

[2] = test system: ProRS (prolyl t-RNA synthetase L482H, parent Dd2); test: Cross-resistance EC50 assay, ProRS; conditions: SYBR green 72 hour assay, synchronized parasites, 384-well format
From the text: as §1, §2, §3

[3] = test system: CYTbQi (cytb G33A, parent Dd2); test: Cross-resistance EC50 assay, CYTbQi; conditions: SYBR green 72 hour assay, synchronized parasites, 384-well format
From the text: as §1, §2, §3

[4] = test system: PfATP4-Mut2 (PfATP4 P412L, parent W2); test: Cross-resistance EC50 assay, PfATP4-Mut2; conditions: hypoxanthine 48-hour assay; synchronized parasites; 96-well format; strain PfATP4 Mut2
From the text: To evaluate potential overlapping activity against known antimalarial drug targets, we performed dose-response studies with each compound against our assembled set of drug-resistant lines and their corresponding parents, in an asexual blood stage proliferation assay (Table 1). Comparisons were made to the drug-sensitive strain 3D7 when a parent was unavailable (TM90C2A, W2 and Dd2). As laboratories conducted EC50 assays with different strains and protocols, all comparisons were made between assays from the same laboratory and under the same assay conditions. Compounds displaying >5-fold EC50 shifts relative to the parent or sensitive strain were flagged as having potentially non-novel targets. Average fold shifts per strain ranged from 0.82 to 2.34, with a median of 1.23 indicating there was not common resistance to any one resistant clone. No resistance patterns were observed when classifying the compounds based on chemical structure, but this was not surprising given the diversity of compounds chosen. On the other hand, given that these confirmed compounds were derived from larger unconfirmed hit lists to which some filtration criteria may have been applied (for example, elimination of obvious dihydrofolate reductase inhibitors[32]), some[10][11][12][13] pre-existing bias may exist in the set.
The 48-h assay was carried out in a 96-well format following standard methods using the ^3H-hypoxanthine incorporation assay. The raw EC50 values corresponding to this assay can be found in Supplementary Data 3. Briefly, this assay relies on the parasite incorporation of labelled hypoxanthine that is proportional to P. falciparum growth. A culture of parasitized RBCs (0.5% parasitemia with a percentage of ring stage higher than 70% of total parasitemia, 2.0% haematocrit) in RPMI-1640, […] and 5 μM hypoxanthine was exposed to drug serial dilutions. Plates were incubated for 24 h at 37 °C, 5% CO2, 5% O2 and 90% N2. After 24 h of incubation, ^3H-hypoxanthine was added and plates were incubated for an additional 24-h period. After that, parasites were harvested on a glass fibre filter using a TOMTEC Cell Harvester 96. Filters were dried and melt-on scintillator sheets were used to determine the incorporation of ^3H-hypoxanthine. Radioactivity was measured using a microbeta counter. Data were normalized using the incorporation of the positive (parasitized RBCs without drug) and negative (same culture with artesunate at 2 μM) controls. All assays were conducted in triplicate using three independently grown cultures, and EC50 values were determined using the XLfit add-in module for Excel (version 2.3.1) from Grafit (version 5.3.1.3), where parameter h is the assay hill slope, x is the compound concentration and y is the inhibition of growth effect. The XLfit equation is: […]
as §2, with “5. […]” for “5.”

[5] = strain PfCRT:Q352R (Dd2 parent)

Row | SMILES | PfCRT:Q352R (Dd2 Parent) Average Hill Slope (PfCRT-Q352R (parent Dd2); [5]) | GNF156R (Dd2 Parent) Average Hill Slope [1] | ProRS (Dd2 Parent) Average Hill Slope ([2]; strain ProRS (Dd2 parent)) | CYTbQi (Dd2 Parent) Average Hill Slope ([3]; strain CYTbQi (Dd2 parent)) | PfATP4 Mut2 (W2F6 Parent) Average Hill Slope [4] | PfCRT:Q352R (Dd2 Parent) Average Hill Slope (PfCRT-Q352R (parent Dd2); PfCRT:Q352R strain) | ProRS (Dd2 Parent) Average Hill Slope ([2]; ProRS strain) | CYTbQi (Dd2 Parent) Average Hill Slope ([3]; CYTbQi strain)
1 | CN1CCN(c2ccc(Nc3c4ccccc4nc4ccccc34)cc2)CC1 [MMV006172] | 7.06 | 3.00 | 3.28 | 2.74 | 2.00 | – | – | –
2 | O=C(Nc1ccsc1C(=O)NC1CCCCC1)c1ccc(F)cc1 [MMV665939] | 7.36 | 2.29 | 3.63 | 6.82 | 1.24 | – | – | –
3 | Cl.c1ccc2c(NCCCCCCNc3c4c(nc5ccccc35)CCCC4)c3c(nc2c1)CCCC3 [MMV019555] | 4.02 | 2.29 | 3.74 | 3.88 | 1.70 | – | – | –
4 | Nc1ccc(-c2nc3cc(Cc4ccc5[nH]c(-c6ccc(N)cc6)nc5c4)ccc3[nH]2)cc1 [MMV665943] | 4.16 | 3.70 | 4.29 | 6.75 | 1.26 | – | – | –
5 | CC(NCc1ccccc1)c1cc(Cl)ccc1O (stereo not shown) [MMV665789] | 1.45 | 1.40 | 1.37 | 2.69 | 1.32 | – | – | –
6 | CN(C)Cc1ccc(-c2cc3c(-c4ccc(CN(C)C)cc4)ccnc3[nH]2)cc1.O=C(O)C(F)(F)F [MMV022224] | 9.31 | 1.43 | 2.86 | 6.06 | 1.59 | – | – | –
7 | Nc1ccc(-c2nc3cc(Oc4ccc(Oc5ccc6[nH]c(-c7ccc(N)cc7)nc6c5)cc4)ccc3[nH]2)cc1 [MMV011895] | 2.19 | 1.35 | 2.39 | 5.12 | 1.52 | – | – | –
8 | c1cncc(-c2cc(N3CCC(CN4CCOCC4)CC3)nc(-c3ccncc3)n2)c1 [MMV668399] | 5.36 | 1.59 | 3.02 | 4.15 | 1.74 | – | – | –
9 | COc1ccc(C(=O)C2CC2c2ccc(Cl)cc2)cc1 (stereo not shown) [MMV665924] | 2.65 | 1.39 | 1.76 | 3.13 | 0.77 | – | – | –
10 | CCN(CC)CCn1c(=N)n(CC(O)c2ccc(Cl)c(Cl)c2)c2ccccc21.Cl (stereo not shown) [MMV000248] | 17.5 | 2.28 | 6.24 | 22.2 | 1.83 | – | – | –
11 | CC(C)(C)OC(=O)N1CCN(c2ccccc2NC(=O)c2cccc(C(F)(F)F)c2Oc2ccc(F)cc2)CC1 [MMV030666] | 4.95 | 1.09 | 2.88 | 4.39 | 1.54 | – | – | –
12 | O=C(NC(c1ccccc1)c1ccc2cccnc2c1O)c1ccccc1 (stereo not shown) [MMV666080] | 1.70 | 1.72 | 2.53 | 7.31 | 2.94 | – | – | –
13 | CN(C)CCCNCc1ccc(-c2ccc(Cl)c(Cl)c2)o1 [MMV673964] | – | 2.18 | – | – | 3.08 | 6.53 | 4.54 | 4.47
14 | FC(F)(F)c1cccc(Nc2nc3ccccc3nc2Nc2cccc(C(F)(F)F)c2)c1 [MMV665794] | 3.48 | 2.75 | 4.25 | 6.62 | 2.37 | – | – | –
15 | COc1ccccc1CNC(=O)CCn1c(=O)[nH]c2ccsc2c1=O [MMV019066] | 1.30 | 0.63 | 1.19 | 1.43 | 0.82 | – | – | –
16 | CCCN(CCC)CC(O)COc1ccccc1C(=O)Nc1ccccc1 (stereo not shown) [MMV006455] | 1.89 | 1.30 | 1.29 | 3.05 | 1.93 | – | – | –
17 | CN(C)S(=O)(=O)c1cc(-c2ccc3nccc(-c4cccc(S(N)(=O)=O)c4)c3c2)cnc1N [MMV024038] | 2.50 | 2.53 | 2.25 | 3.21 | 0.76 | – | – | –
